Experimental data taken from patent US5430062A, “Stilbene derivatives as anticancer agents” (priority 1993, dated 1995).
pIC50: −log10 of the molar value. At least one structure is not confirmed: it was looked up by name or label, or the drawing left a doubt.

System: tubulin
Assay: Inhibition of tubulin polymerization (turbidimetry)
Assay type: biochemical, bovine
Conditions: for pIC50: second series (Tables V-VII, IX), read-out: Inhibition of Tubulin Polymerization IC50 (±S.D.)

## COc1cc(/C=C\c2ccc(C)cc2)cc(OC)c1OC [15d, (Z)-(4-Methylphenyl)-2-(3,4,5-trimethoxyphenyl)ethene]
  inhibition of tubulin polymerization (in words): equivalent to combretastatin A-4
  pIC50: 5.70

## CCc1ccc(/C=C\c2cc(OC)c(OC)c(OC)c2)cc1 [15e, (Z)-(4-Ethylphenyl)-2-(3,4,5-trimethoxyphenyl)ethene]
  pIC50: 5.47

## COc1ccc(/C=C\c2ccc(OC)c(OC)c2)cc1 [15h, (Z)-(4-Methoxyphenyl)-2-(3,4-dimethoxyphenyl)ethene]
  pIC50: 4.74
